Values of other authors as cited in patent US20250019345A1, “NEW CANNABINOID-GAB[…] USES THEREOF” (LONDON PHARMACEUTICALS AND RESEARCH CORPORATION, priority 2021, published 2025).
Some results were stated once for a whole list of compounds, not compound by compound.

Settings: after oral administration

SMILES	bioavailability
C=C(C)[C@@H]1CCC(C)=C[C@H]1c1c(O)cc(CCCCC)cc1O [CBD, cannabidiol]	< 20%
CCCCCc1cc(O)c2c(c1)OC(C)(C)[C@@H]1CCC(C)=C[C@@H]21 [THC, delta-9-tetrahydrocannabinol]	< 20%
